Measured values reported in patent US20230073781A1, “Systemic administration of peptides for the treatment of spinal cord injury and/or for remyelination” (AXOLTIS PHARMA, priority 2019, published 2023).
At least one peptide structure holds a part that was inferred or is arguable (an end, a ring closure or a residue). Marks after values point to notes of the source that are not given here. Where a SMILES comes first, the peptide text is derived from it.

Assays:
[1] = system: rat contusion model of SCI; conditions: administered into the lesion; cited from earlier work
[2] = system: mice after T8 dorsal hemisection (spinal cord injury); test: Open field BMS after T8 dorsal hemisection, experiment 1; format: in vivo, mouse; conditions: for BMS score / BMS subscore / BMS ≥ 5 (percentage of mice with BMS score ≥5): 8 mg/kg i.p. twice a week from 10 min post-injury
[3] = system: Myelin Basic Protein (MBP); test: MBP staining intensity after T8 dorsal hemisection, experiment 1; format: in vivo, mouse; conditions: 8 mg/kg i.p., eight weeks after injury
[4] = system: Myelin Binding Protein (MBP); test: MBP immunostaining lesion area after lysolecithin injection; format: in vivo, mouse; conditions: 5 mg/kg i.p. every other day from D2
rat cortical neurons = test: Glutamate-induced excitotoxicity in rat primary cortical neurons (MAP-2); format: cell-based; conditions: for Neurite length (cumulative length of MAP-2-positive neurites) / Neuronal survival (number of MAP-2-positive neurons): control = 100
rat model of SCI = conditions: administered directly at the lesion site in a collagen tube; cited from earlier work
[5] = system: mice after T8 dorsal hemisection (spinal cord injury); test: Activity chamber test after T8 dorsal hemisection, experiment 2; format: in vivo, mouse
[6] = system: mice after T8 dorsal hemisection (spinal cord injury); test: Rotarod test after T8 dorsal hemisection, experiment 1; format: in vivo, mouse; conditions: for Rotarod Time: 8 mg/kg i.p. twice a week from 10 min post-injury
[7] = glu 20 μM + peptide 100 μg/mL for 20 minutes
[8] = glu 20 μM + peptide 250 μg/mL for 20 minutes
[9] = glu 20 μM + peptide 500 μg/mL for 20 minutes
[10] = 4 mg/kg i.p. twice a week from 4 h post-injury, D 2
[11] = 4 mg/kg i.p. twice a week from 4 h post-injury, D 8
[12] = 4 mg/kg i.p. twice a week from 4 h post-injury, D 15
[13] = 4 mg/kg i.p. twice a week from 4 h post-injury, D 22
[14] = 4 mg/kg i.p. twice a week from 4 h post-injury, D 29
[15] = 4 mg/kg i.p. twice a week from 4 h post-injury, D 36
[16] = 4 mg/kg i.p. twice a week from 4 h post-injury, D 43
[17] = 4 mg/kg i.p. twice a week from 4 h post-injury, D 50
[18] = 4 mg/kg i.p. twice a week from 4 h post-injury, D 57
[19] = 4 mg/kg i.p. twice a week from 4 h post-injury, D −1
[20] = 8 mg/kg i.p. twice a week from 4 h post-injury, D 2
[21] = 8 mg/kg i.p. twice a week from 4 h post-injury, D 8
[22] = 8 mg/kg i.p. twice a week from 4 h post-injury, D 15
[23] = 8 mg/kg i.p. twice a week from 4 h post-injury, D 22
[24] = 8 mg/kg i.p. twice a week from 4 h post-injury, D 29
[25] = 8 mg/kg i.p. twice a week from 4 h post-injury, D 36
[26] = 8 mg/kg i.p. twice a week from 4 h post-injury, D 43
[27] = 8 mg/kg i.p. twice a week from 4 h post-injury, D 50
[28] = 8 mg/kg i.p. twice a week from 4 h post-injury, D 57
[29] = 8 mg/kg i.p. twice a week from 4 h post-injury, D −1
[30] = 16 mg/kg i.p. twice a week from 4 h post-injury, D 2
[31] = 16 mg/kg i.p. twice a week from 4 h post-injury, D 8
[32] = 16 mg/kg i.p. twice a week from 4 h post-injury, D 15
[33] = 16 mg/kg i.p. twice a week from 4 h post-injury, D 22
[34] = 16 mg/kg i.p. twice a week from 4 h post-injury, D 29
[35] = 16 mg/kg i.p. twice a week from 4 h post-injury, D 36
[36] = 16 mg/kg i.p. twice a week from 4 h post-injury, D 43
[37] = 16 mg/kg i.p. twice a week from 4 h post-injury, D 50
[38] = 16 mg/kg i.p. twice a week from 4 h post-injury, D 57
[39] = 16 mg/kg i.p. twice a week from 4 h post-injury, D −1

In the case of `N=C(N)NCCC[C@H](NC(=O)[C@H](CO)NC(=O)[C@H](CS)NC(=O)[C@H](CO)NC(=O)[C@H](CO)NC(=O)[C@H](Cc1c[nH]c2ccccc12)NC(=O)CNC(=O)[C@H](CO)NC(=O)[C@@H](N)Cc1c[nH]c2ccccc12)C(=O)N[C@@H](CO)C(=O)N[C@@H](CS)C(=O)NCC(=O)O` [NX210, W-S-G-W-S-S-C-S-R-S-C-G] (H-WSGWSSCSRSCG-OH), the functional recovery [1] is listed as “significantly improves functional recovery”, the BMS score ([2]; D 2) is listed as 0.71 and the BMS subscore ([2]; D 2) is listed as 0.00. For the same compound, the BMS score ([2]; D 7) was 3.57***, the BMS subscore ([2]; D 7) was 1.14 and the “BMS ≥ 5 (percentage of mice with BMS score ≥5)” value ([2]; D 7) was 28.57%. For the same compound, the BMS score ([2]; D 14) was 6.00**, the BMS subscore ([2]; D 14) was 5.00** and the “BMS ≥ 5 (percentage of mice with BMS score ≥5)” value ([2]; D 14) was 85.71%. The BMS score ([2]; D 21) was 5.43, the BMS subscore ([2]; D 21) was 2.57 and the “BMS ≥ 5 (percentage of mice with BMS score ≥5)” value ([2]; D 21) was 71.43%. For the same compound, the BMS score ([2]; D 28) was 5.50, the BMS subscore ([2]; D 28) was 3.43 and the “BMS ≥ 5 (percentage of mice with BMS score ≥5)” value ([2]; D 28) was 100.00%. The BMS score ([2]; D 35) was 6.21*, the BMS subscore ([2]; D 35) was 4.86** and the “BMS ≥ 5 (percentage of mice with BMS score ≥5)” value ([2]; D 35) was 85.71%. For the same compound, the BMS score ([2]; D 42) was 5.93*, the BMS subscore ([2]; D 42) was 4.43* and the “BMS ≥ 5 (percentage of mice with BMS score ≥5)” value ([2]; D 42) was 100%. The BMS score ([2]; D-1) was 9.00, the BMS subscore ([2]; D-1) was 11.00 and the “BMS score compared to vehicle-injected mice” value ([2]; 8 mg/kg i.p., from day 7 to the end of the study (day 42 post-injury)) was “significantly higher”. It also gave an MBP intensity ([3]; distance to injury 0-200 (μm)) of 1292.41, an MBP intensity ([3]; distance to injury 200-0 (μm)) of 1229.59 and an MBP intensity ([3]; distance to injury 200-400 (μm)) of 1633.44. For the same compound, the MBP intensity ([3]; distance to injury 400-200 (μm)) was 1780.76, the MBP intensity ([3]; distance to injury 400-600 (μm)) was 1945.87 and the MBP intensity ([3]; distance to injury 600-400 (μm)) was 1928.08. It also gave an MBP intensity ([3]; distance to injury 600-800 (μm)) of 1987.64, an MBP intensity ([3]; distance to injury 800-600 (μm)) of 1859.43 and an MBP intensity ([3]; distance to injury 800-1000 (μm)) of 1892.23. The MBP intensity ([3]; distance to injury 1000-800 (μm)) was 1861.63, the “MBP intensity levels compared to vehicle treated mice” value ([3]; lesion site and 1000 μm rostral and caudal) was “significant increase in MBP intensity levels” and the MBP lesion area ([4]; first treated time point (day not given, D3)) was 28.6 % of the ipsilateral CC. For the same compound, the MBP lesion area ([4]; fourth treated time point (day not given, D21)) was 24.6 % of the ipsilateral CC, the MBP lesion area ([4]; second treated time point (day not given, D7)) was 34.3 % of the ipsilateral CC and the MBP lesion area ([4]; third treated time point (day not given, D14)) was 32.7 % of the ipsilateral CC. The “protection from glutamate-induced neuronal death” value (rat cortical neurons; NX218 at 250 and 500 μg/mL, NX210 at its highest dose) was “increased neuronal survival”, the “Neurite length (cumulative length of MAP-2-positive neurites)” value (“Neurite length” below) (rat cortical neurons; [7]) was 67.28 and the “Neuronal survival (number of MAP-2-positive neurons)” value (“Neuronal survival” below) (rat cortical neurons; [7]) was 72.78. For the same compound, the “Neurite length” value (rat cortical neurons; [8]) was 77.5, the “Neuronal survival” value (rat cortical neurons; [8]) was 78.18 and the cell death (rat cortical neurons; glu 20 μM + peptide 500 μg/mL (highest dose), 29.40% for glu-treated neurons) was 19.00%. The “Neurite length” value (rat cortical neurons; [9]) was 74.34, the “Neuronal survival” value (rat cortical neurons; [9]) was 81 and the “protective effect on neurite network” value (rat cortical neurons; glu 20 μM + peptide 100, 250 and 500 μg/mL) was “did not display any protective effect on neurite network”. For the same compound, the axonal regrowth (rat model of SCI) was “improve axonal regrowth”, the Average velocity [5, 10] was 3.32 m/min and the Total distance traveled [5, 10] was 24.11 m. It also gave an Average velocity [5, 11] of 3.88 m/min, a Total distance traveled [5, 11] of 30.48 m and an Average velocity [5, 12] of 3.74 m/min. The Total distance traveled [5, 12] was 28.73 m, the Average velocity [5, 13] was 3.99 m/min and the Total distance traveled [5, 13] was 29.27 m. It also gave an Average velocity [5, 14] of 4.18 m/min, a Total distance traveled [5, 14] of 33.15 m and an Average velocity [5, 15] of 4.02 m/min. The Total distance traveled [5, 15] was 33.67 m, the Average velocity [5, 16] was 4.12 m/min and the Total distance traveled [5, 16] was 33.73 m. It also gave an Average velocity [5, 17] of 4.00 m/min, a Total distance traveled [5, 17] of 32.38 m and an Average velocity [5, 18] of 3.92 m/min. It also gave a Total distance traveled [5, 18] of 31.84 m, an Average velocity [5, 19] of 4.60 m/min and a Total distance traveled [5, 19] of 35.14 m. For the same compound, the Average velocity [5, 20] was 3.46 m/min, the Total distance traveled [5, 20] was 25.92 m and the Average velocity [5, 21] was 4.15 m/min. For the same compound, the Total distance traveled [5, 21] was 34.33 m, the Average velocity [5, 22] was 4.26 m/min and the Total distance traveled [5, 22] was 32.76 m. For the same compound, the Average velocity [5, 23] was 4.67* m/min, the Total distance traveled [5, 23] was 39.26 m and the Average velocity [5, 24] was 4.64 m/min. The Total distance traveled [5, 24] was 40.01* m, the Average velocity [5, 25] was 4.69* m/min and the Total distance traveled [5, 25] was 40.48 m. For the same compound, the Average velocity [5, 26] was 4.32 m/min, the Total distance traveled [5, 26] was 36.19* m and the Average velocity [5, 27] was 4.72* m/min. For the same compound, the Total distance traveled [5, 27] was 41.65* m, the Average velocity [5, 28] was 4.19 m/min and the Total distance traveled [5, 28] was 34.79 m. The Average velocity [5, 29] was 4.52 m/min, the Total distance traveled [5, 29] was 34.76 m and the Average velocity [5, 30] was 3.37 m/min. It also gave a Total distance traveled [5, 30] of 23.94 m, an Average velocity [5, 31] of 4.18 m/min and a Total distance traveled [5, 31] of 35.19 m. For the same compound, the Average velocity [5, 32] was 3.95 m/min, the Total distance traveled [5, 32] was 32.33 m and the Average velocity [5, 33] was 4.31 m/min. It also gave a Total distance traveled [5, 33] of 34.82 m, an Average velocity [5, 34] of 4.52 m/min and a Total distance traveled [5, 34] of 37.55 m. For the same compound, the Average velocity [5, 35] was 4.52 m/min, the Total distance traveled [5, 35] was 40.03 m and the Average velocity [5, 36] was 4.42* m/min. The Total distance traveled [5, 36] was 36.70* m, the Average velocity [5, 37] was 4.82** m/min and the Total distance traveled [5, 37] was 42.02* m. For the same compound, the Average velocity [5, 38] was 4.48* m/min, the Total distance traveled [5, 38] was 38.18* m and the Average velocity [5, 39] was 4.85 m/min. The Total distance traveled [5, 39] was 37.89 m, the “spontaneous locomotor activity (activity chamber) compared to vehicle” value ([5]; in particular 8 and 16 mg/kg groups) was “significant increased total traveled distance and average velocity” and the “Rotarod Time” value ([6]; D 2) was 19.29 s. For the same compound, the “Rotarod Time” value ([6]; D 7) was 26.95 s, the “Rotarod Time” value ([6]; D 14) was 31.19 s and the “Rotarod Time” value ([6]; D 21) was 42.33 s. The “Rotarod Time” value ([6]; D 28) was 35.05 s, the “Rotarod Time” value ([6]; D 35) was 29.95 s and the “Rotarod Time” value ([6]; D 42) was 22.52 s. The “Rotarod Time” value ([6]; D −1) was 65.64 s and the “rotarod test compared to vehicle” value ([6]; 8 mg/kg i.p., experiment 1) was “increased the duration time on the rod and latency to fall”.
